PubChem BioAssay AID1259323, Peter MacCallum Cancer Centre, 2017
The deposit covers 715 reagents; shown is a part drawn at random. Over the whole deposit, 91 (13%) got an active call. 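Active pools lower the sustained TRPV4 phase but spare the early PAR2 peak; PAR2 agonist and dose are not stated; pools repeat across wells.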 Unmarked entries are inactive. A reagent listed more than once was tested more than once; the source does not tell the runs apart. Not stated in the record: the amount of reagent, the time to read-out.

- Aim: 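Kinase knock-downs that weaken TRPV4 calcium entry after PAR2 activation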 (primary screen)
- Cell system: human HEK293 cells stably carrying inducible TRPV4
- Knock-down reagent: siRNA pool against human genes
- Conditions: PAR2 activation; agonist identity and dose not given
- Detection: 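Real-time Fura-2 calcium after PAR2 activation; early peak and later plateau each as % of mock-transfected wells on the plate, mean of two plates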
- Reading the numbers: TRPV4 plateau calcium, % of mock: higher = stronger sustained TRPV4 calcium entry than mock; PAR2 peak calcium, % of mock: higher = stronger early PAR2 calcium response than mock
- Call rule: 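Active if plateau calcium is under 90% of mock and early peak calcium stays over 79% of mock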

Gene	TRPV4 plateau calcium, % of mock	PAR2 peak calcium, % of mock
N4BP2	95.4	98.5
RPS6KL1	105	105
PRKAG2	94	95.1
PRKG1	108	107
PFKM	98	98.1
MKNK1	103	97.3
NME2	97.8	96.4
PNKP	105	100
TRIM27	95	95.8
GUK1	91.1	98.9
EPHA3	106	102
NEK4	100	93
NME1	96	98.2
DGKK	75.4	67.5
ETNK1	96.9	100
RPS6KA1	95.5	95.6
CILK1	106	102
MAST2	96.5	87.6
JAK2	115	106
BUB1	84.1	78.8
PRKCH	106	98.5
MAK	101	97.8
CLK1	113	104
AK3	91.4	95.8
STK4	100	101
UCK1	111	108
IP6K3	90.7	102
PLK3	92.8	94.9
IKBKG	93	95.5
DLG4	94.6	90.2
EPHA1	108	105
MATK	106	101
MPP3	96.1	101
CAMKV	125	108
TRIO	88.4 (active)	85.2
STK36	109	102
AAK1	124	106
FLT1	90.4	96.6
PDPK1	98.8	98.4
MAP3K19	113	107
TSSK2	98.1	95
SPHK1	91.8	97.1
CDKN2C	112	105
RPS6KA4	93.4	95.9
CAMK1	114	105
PSKH2	103	101
MARK1	108	104
TSSK4	102	101
DTYMK	94.3	92.7
PRKY	107	103
COASY	103	106
PBK	101	99
PNCK	92.2	101
RIOK3	109	102
SRC	114	107
ELP1	106	110
PIP5K1B	104	101
TRIB2	111	104
LRRK1	99.6	97.9
CDK13	96.9	97.9
THNSL1	108	107
RPS6KA3	88.2 (active)	89.7
SGK1	98.5	103
ULK2	100	92.8
STK32A	104	102
MAP3K12	93.7	92.7
CAMKK1	108	102
CAMKK1	88.1 (active)	91.7
DCLK3	96.7	95.5
CDKN2B	104	103
MUSK	102	102
ARAF	94.4	93.8
NTRK1	93.2	95.7
AURKC	117	107
ITPK1	78.8 (active)	92.5
GUCY2D	74.5	75.5
HK1	105	102
PRPS2	99.4	99.6
LCK	107	97.2
MAP3K10	107	104
MAP3K1	94	93.6
CLK2	95.1	95.8
PDXK	106	91
MAP4K5	106	104

Reagents listed so far marked active (4):
Gene	TRPV4 plateau calcium, % of mock	PAR2 peak calcium, % of mock
TRIO	88.4 (active)	85.2
RPS6KA3	88.2 (active)	89.7
CAMKK1	88.1 (active)	91.7
ITPK1	78.8 (active)	92.5
